From patent US10398751B2, “Pharmaceutical compositions of water soluble peptides with poor solubility in isotonic conditions and methods for their use” (STRONGBRIDGE IRELAND LIMITED, priority 2016, dated 2019)
Structures can show the parent of a compound that is named as a salt. For at least one compound, name, drawing or mass did not settle the structure.

Tests used:
[1] = Solubility of COR005 acetate in aqueous media with additives at 25° C.; type: physicochemical; conditions: acetate salt
Text: Table 3 summarizes the solubility values of COR005 acetate in various aqueous media, the effects of additives such as DEX and HPB on the peptide solubility in saline and physiological conditions, as well as the PK profile of IR and MS formulations prepared with these additives in comparison to COR005 without additives as control.
Note that both media (PBS or Saline) contained physiological concentrations of chloride which indicates the incompatibility and salting out of the peptide in the presence of the chloride ion.
The relatively high solubility of COR005 acetate in 5% dextrose (in water) of greater than 500 mg/ml indicates the improved solubility of the peptide in water with dextrose. […] Note that this 1:1 diluted dextrose in saline was used as a vehicle in the IR study of COR005 acetate in rats and minipigs (the DEX:PEP ratio was 5:1).

[2] = Pharmacokinetics of IR formulations in minipigs; type: in vivo; conditions: SC, acetate salt
[3] = 0.1 mg/Kg, DEX:PEP 5:1 saline, listed as COR 005 acetate, 0.1 mg/kg
[4] = 0.1 mg/Kg, Lactic acid buffer pH 4, listed as COR 005 acetate
[5] = 0.4 mg/Kg, DEX:PEP 5:1 saline, listed as COR005 Acetate, 0.4 mg/kg
[6] = 0.4 mg/Kg, DEX:PEP 5:1 saline, listed as COR 005 acetate, 0.4 mg/kg
[7] = 0.4 mg/Kg, HPB:PEP 15:1 saline, listed as COR005 Acetate, 0.4 mg/kg
[8] = 0.4 mg/Kg, HPB:PEP 15:1 saline, listed as COR 005 acetate, 0.4 mg/kg
[9] = 0.4 mg/Kg, Lactic acid buffer pH 4, listed as COR005 Acetate
[10] = 0.4 mg/Kg, Lactic acid buffer pH 4, listed as COR 005 acetate

## C[C@@H](O)[C@@H]1NC(=O)[C@H](CCCCN)NC(=O)[C@@H](Cc2c[nH]c3ccccc23)NC(=O)[C@H](Cc2c[nH]c3ccccc23)NC(=O)[C@H](Cc2ccccc2)NC(=O)CCCNC(=O)CCCN(CC(N)=O)C(=O)[C@H](Cc2ccccc2)NC1=O [Veldoreotide Acetate, Cyclo(-γ-aminobutyryl-L-phenylalanyl-L-tryptophanyl-D-tryptophanyl-L-lysyl-L-threonyl-L-phenylalanyl-N-carbamoylmethyl-γ-aminobutyryl), acetate salt]
[1]; 5% Dextrose Isotonic, additives none, listed as COR005 Acetate
  Solubility of COR005 Acetate (mg/ml) at 25° C.: 530 mg/mL
[1]; Isotonic 0.45NS (0.45% NaCl) 2.5D Dextrose […], DEX:PEP 5:1, listed as COR005 Acetate
  Solubility of COR005 Acetate (mg/ml) at 25° C.: ≥6.5 mg/mL
[1]; NS - 0.9% NaCl, additives none, listed as COR005 acetate
  Solubility of COR005 Acetate (mg/ml) at 25° C.: 2 mg/mL
[1]; PBS pH 7.4 Isotonic, HPB:PEP 1:2, listed as COR005 Acetate
  Solubility of COR005 Acetate (mg/ml) at 25° C.: 3 mg/mL
[1]; Water, additives none, listed as COR005 Acetate
  Solubility of COR005 Acetate (mg/ml) at 25° C.: 350 mg/mL
[2]; 0.1 mg/Kg, DEX:PEP 5:1 saline, listed as COR005 Acetate, 0.1 mg/kg
  Minipigs absolute BA (F %): F = 91%
[2]; [3]
  Minipigs Cmax: 43.6 ng/mL
  Minipigs absolute BA (F %): 91.4%
[2]; 0.1 mg/Kg, Lactic acid buffer pH 4, listed as COR005 Acetate
  Minipigs absolute BA (F %): F = 45%
[2]; [4]
  Minipigs Cmax: 29.3 ng/mL
  Minipigs absolute BA (F %): 45%
[2]; [5]
  Minipigs Cmax (ng/ml): Cmax = 255 ng/ml
  Minipigs absolute BA (F %): F = 85%
[2]; [6]
  Minipigs Cmax: 238 ng/mL
  Minipigs absolute BA (F %): 88.4%
[2]; [7]
  Minipigs Cmax (ng/ml): Cmax = 238 ng/ml
  Minipigs absolute BA (F %): F = 88%
[2]; [8]
  Minipigs Cmax: 255 ng/mL
  Minipigs absolute BA (F %): 85.3%
[2]; [9]
  Minipigs Cmax (ng/ml): Cmax = 108 ng/ml
  Minipigs absolute BA (F %): F = 69%
[2]; [10]
  Minipigs Cmax: 108 ng/mL
  Minipigs absolute BA (F %): 69%
